## Primary screen of a compound library

From ChEMBL document CHEMBL3988442, “University of Dundee, Small-Polar-MMV Screening Library” (2021).

Mtb growth Cornell: 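Whole-cell assay for inhibitors of Mycobacterium tuberculosis growth, labelled Cornell in the record; the read-out is not stated. The concentration is filed as 10 mM, unlikely as a test dose, so the dose is not known. The record gives no direction; compounds strong in two other growth screens of this library score well above the rest, so higher reads as stronger inhibition. About 53,000 compounds were tested under these conditions; 1.7% (about 900) showed 50% or more at least once.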
Mtb heat-shock: 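Assay on Mycobacterium tuberculosis, filed only as a heat shock assay from Cornell; the read-out is not stated. The concentration is filed as 10 mM, unlikely as a test dose, so the dose is not known. The record gives no direction; compounds that gave an IC50 in retests scored well above the rest, so higher reads as stronger inhibition. About 69,000 compounds were tested under these conditions; 1.4% (about 930) showed 50% or more at least once.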

Results are given as percent effect. How 0% and 100% were set is not recorded. Most values in the screen are low, and negative values occur. This is an unselected part of the compounds tested.

For CC(=O)NCCc1cc2nc(-c3ccncc3)ccn2n1 the result was Mtb growth Cornell: 4.312%; Mtb heat-shock: 1.137%. CCc1sc(-c2nnc(CNCCn3cccn3)o2)cc1C read Mtb growth Cornell: -21.28%; Mtb heat-shock: -16.4%. For O=C(C1CC(c2ccccc2)=NO1)N1CCc2ccccc21 (stereo not drawn) the result was Mtb heat-shock: -2.715%. For CCOC(=O)N1CCC(N2Cc3ncccc3C2=O)CC1 the result was Mtb growth Cornell: 13.53%; Mtb heat-shock: 2.35%. For CC(CNC(=O)c1ccncc1F)Oc1ccc(F)cc1 (stereo not drawn) the result was Mtb growth Cornell: 12.92%; Mtb heat-shock: 20.18%. CC(C)c1cc(C(=O)N(Cc2ccncc2)CC2CCCO2)no1 (stereo not drawn) gave Mtb heat-shock: -121.7%. With Cn1cc(N2CCC3(CCN(C(=O)[C@H]4CCCO4)C3)C2=O)cn1 (stereo partly drawn) the screen gave Mtb growth Cornell: -28.49%; Mtb heat-shock: 1.682%.

Result for Cc1ccc(CN2CC(C(=O)NC(C)C)C3(CCOCC3)C2)s1.O=C(O)C(F)(F)F (stereo not drawn) was Mtb growth Cornell: 8.682%; Mtb heat-shock: -45.62%. For [H][C@@]12CCCO[C@]1([H])[C@H](N(CC)CC)CN2Cc1ccc(C)o1 the result was Mtb growth Cornell: 14.41%; Mtb heat-shock: -2.193%. For CN1C(=O)CC(c2cnn(C)c2)C12CCN(CC1CCOCC1)CC2.O=C(O)C(F)(F)F (stereo not drawn) the result was Mtb growth Cornell: 20.56%; Mtb heat-shock: -5.978%. Result for [H][C@]12CC[C@]([H])(CN(Cc3cc(-c4ccccc4)no3)C1)N(CC1CCC1)C2 was Mtb growth Cornell: 96.75%; Mtb heat-shock: 105.8%. With Cc1nc2c(cc1C(=O)Nc1ccccc1Cl)c(=O)n(C)c(=O)n2C the screen gave Mtb growth Cornell: 12.14%; Mtb heat-shock: 8.988%. CO[C@@H]1CCN(Cc2nccs2)C[C@@H]1Cc1cccc(C)c1.O=C(O)C(F)(F)F gave Mtb growth Cornell: 58.64%; Mtb heat-shock: 8.351%. O=C(O)C(F)(F)F.[H][C@]12CC[C@@]3(N=C(C)N(CC4CC4)C3=O)[C@@]1([H])CN(Cc1ccc(C)cc1)C2 gave Mtb growth Cornell: 6.615%; Mtb heat-shock: 0.8614%.

[H][C@@]12CC[C@H](Oc3ccccc3)[C@]1([H])CN(C(=O)CN(C)C)C2 gave Mtb growth Cornell: -25.79%; Mtb heat-shock: -7.355%. Result for c1ccc(Cc2nnc(CN3CCCC(Cn4cncn4)C3)o2)cc1 (stereo not drawn) was Mtb heat-shock: 9.939%. O=C(NCCN1CCCC1)Nc1cc(C(=O)N2CCOCC2)ccc1Cl read Mtb growth Cornell: 17.89%; Mtb heat-shock: 33.61%. Cc1ccc(NC(=O)NCCc2ccncc2C)c(N(C)C)n1 gave Mtb growth Cornell: 23%; Mtb heat-shock: -0.9726%. Result for Cc1cnnn1Cc1nnn2c1CN(Cc1ccccn1)CCC2.O=C(O)C(F)(F)F was Mtb growth Cornell: -10.89%; Mtb heat-shock: -0.2767%. For CC(=O)c1c(O)ccnc1C(F)(F)F the result was Mtb heat-shock: -15.43%. With CC(C)N1CCN(C(=O)C(C)n2cncn2)CC1 (stereo not drawn) the screen gave Mtb growth Cornell: -67.48%; Mtb heat-shock: 0.6313%.

For Cc1[nH]c2ccccc2c1-c1ccnc(N[C@@H](C)CO)n1 the result was Mtb growth Cornell: 0.4831%; Mtb heat-shock: -31.62%. For CC(=O)N1CCC2(C1)c1ccccc1S(=O)(=O)N2C (stereo not drawn) the result was Mtb growth Cornell: 0.9937%; Mtb heat-shock: 16.14%. O=C(CC1CCC1)N1CCCC(CO)(CC2CC2)C1 (stereo not drawn) gave Mtb heat-shock: 0.4078%. CCCOC(=O)c1ccc(-c2ccc(/C=C3\C(=O)NC(=N)N3C)o2)cc1 gave Mtb growth Cornell: 10.52%; Mtb heat-shock: 6.457%. Result for O=C(O)C(F)(F)F.O=C(O)C(F)(F)F.[H][C@@]12CCCO[C@]1([H])[C@H](NC(=O)CC1CC1)CN(Cc1ccccn1)C2 was Mtb growth Cornell: -2.419%; Mtb heat-shock: -13.97%. O=C(O)C(F)(F)F.[H][C@@]12CCN(C3CCOCC3)C[C@]1([H])[C@H](C(=O)NC)CCO2 gave Mtb growth Cornell: 5.392%; Mtb heat-shock: 3.699%. Result for Cc1cccc2c1C(=O)NC(c1cnc(C3CCC3)s1)N2 (stereo not drawn) was Mtb growth Cornell: 7.514%; Mtb heat-shock: -3.705%.

Result for Cc1nc(CN2CCCN(C(=O)CCc3ccco3)CC2)cs1 was Mtb growth Cornell: -46.78%; Mtb heat-shock: 22.56%.

Once more, the final 3:

{"smiles": "O=C(O)C(F)(F)F.[H][C@@]12CCN(C3CCOCC3)C[C@]1([H])[C@H](C(=O)NC)CCO2", "Mtb growth Cornell": 5.392, "Mtb heat-shock": 3.699}
{"smiles": "Cc1cccc2c1C(=O)NC(c1cnc(C3CCC3)s1)N2", "stereo": "stereo not drawn", "Mtb growth Cornell": 7.514, "Mtb heat-shock": -3.705}
{"smiles": "Cc1nc(CN2CCCN(C(=O)CCc3ccco3)CC2)cs1", "Mtb growth Cornell": -46.78, "Mtb heat-shock": 22.56}